Measurements reported in PubChem BioAssay AID2685 (National Center for Advancing Translational Sciences (NCATS), 2010).
This is one part of the list. Shown are side measurements of this screen, not its main read-out; they come without a call. The list favours compounds with an active or inconclusive main result. Words in brackets tell the shape of the fitted curve; partial curves, single points and poor fits give uncertain potencies.

Assay: qHTS Assay for Lipid Storage Modulators in Drosophila S3 Cells;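 as to cell number change: cells counted by Cell Tracker Red CMTPX staining in the red channel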
Conditions: BODIPY lipid droplet fluorescence, 18-24 h; for cell number change: measured here: cell count max response, cells fed with added oleic acid
Procedure, shortened: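 Laser-scanning cytometry quantifies lipid droplet accumulation (500–530 nm total intensity; droplet/cell object ratio) in oleic acid-fed (400 uM added) Drosophila S3 cells treated with a concentration series. 20 uM Triacsin C defined 100% inhibition.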

[1] = measured here: lipid fluorescence (Fed channel) AC50, cells fed with added oleic acid
[2] = measured here: cell number channel AC50, cells fed with added oleic acid

| SMILES | cell number change [%] | AC50 [1] | AC50 [2] |
| --- | --- | --- | --- |
| CSc1nnc2ccc(-c3cccs3)nn12 | 32.1 | – | – |
| CC(NC(=O)Cc1ccccc1[N+](=O)[O-])c1ccccc1 (centres undefined) | -5.58 | 16.4 µM [falling, single point] | – |
| Cc1cc(C(=O)Nc2cccc(/C=C/C(=O)O)c2)c(C)o1 | 5.31 | – | – |
| Cc1ccc(C(=O)O/N=C(\c2ccccc2)c2cccnc2)cc1 | 171 | 20.6 µM [rising, partial curve] | 13 µM [rising, partial curve] |
| O=S(=O)(Cc1ccc(Cl)cc1)N1CCCCCC1 | 7.04 | 0.092 µM [rising, full curve, poor fit] | – |
| Cc1ccc(C(=O)N2CCN(c3ccccc3)CC2)cc1C | 3.24 | 0.00651 µM [falling, full curve, poor fit] | – |
| COc1cccc(/C=C2\SC(=O)N(CC(=O)NC3C=CS(=O)(=O)C3)C2=O)c1 (centres undefined) | – | – | 0.82 µM [rising, full curve, poor fit] |
| O=C(NCc1ccccc1)c1nncc(-c2ccccc2)n1 | -9.94 | 0.00731 µM [rising, full curve, poor fit] | – |
| Cn1c(NC(=O)c2ccccc2)cc(=O)n(C)c1=O | 23.3 | – | – |
| Cn1ncc([N+](=O)[O-])c1C(=O)Nc1ccc(-c2nc3ccccc3[nH]2)cc1 | 12.9 | – | 0.82 µM [rising, partial curve] |
| O=C(/C=C/c1cccs1)c1ccc(N2CCOCC2)cc1 | 31.2 | – | – |
| Cc1ccc(-c2nn3c(C)nnc3s2)cc1NC(=O)c1ccc(Br)o1 | – | 0.0058 µM [rising, full curve, poor fit] | – |
| C=CCn1c(=O)/c(=C/c2ccc(C)o2)s/c1=C(/C#N)C(=O)c1ccccc1 | -20.4 | – | – |
| O=C(NCCc1ccccc1)c1noc2c1CCCCC2 | 6.31 | – | – |
| CC(=O)c1cccc(S(=O)(=O)NCCC(=O)O)c1 | -34.3 | 4.11 µM [falling, single point] | 5.17 µM [falling, single point] |
| CC(=O)c1ccc(NC(=S)N(Cc2ccccc2)C(C)C2CC2)cc1 (centres undefined) | -22.7 | – | – |
| COc1ccc(OCCCC(=O)N2CCN(S(=O)(=O)c3cccc(F)c3)CC2)cc1 | 65.5 | – | 29.1 µM [rising, single point] |
| CCOC(=O)/C=C1\NC(=O)CS1 | 7.4 | 6.51 µM [falling, single point] | – |
| COc1ccc2c(CC(=O)OCC(=O)Nc3ccccc3[N+](=O)[O-])coc2c1 | – | 6.51 µM [rising, single point] | 0.0116 µM [falling, full curve, poor fit] |
| COc1ccc(-c2nc(CS(=O)CC(=O)NC3CCC(C)CC3)c(C)o2)cc1OC (centres undefined) | -6.08 | – | – |
| CC1CCC(NC(=O)c2cc3c(s2)CCCC3)CC1 (centres undefined) | 92 | – | 20.6 µM [rising, partial curve] |

Some of the entries so far, with bars between the fields.
SMILES | cell number change [%] | AC50 [1] | AC50 [2]
CSc1nnc2ccc(-c3cccs3)nn12 | 32.1 | – | –
CC(=O)c1cccc(S(=O)(=O)NCCC(=O)O)c1 | -34.3 | 4.11 µM [falling, single point] | 5.17 µM [falling, single point]

Additional entries:

| SMILES | cell number change [%] | AC50 [1] | AC50 [2] |
| --- | --- | --- | --- |
| CN(CCCNC(=O)c1cccn2c(=O)c3ccccc3nc12)Cc1ccccc1 | 5.29 | 0.092 µM [rising, full curve] | 0.058 µM [rising, full curve, poor fit] |
| O=c1[nH]c(CN2CCN(Cc3ccc4c(c3)OCO4)CC2)nc2sc3c(c12)CCC3 | -1.72 | 3.26 µM [falling, single point] | – |
| CC1S/C(=C(\C#N)C(N)=O)N(c2ccc(F)cc2)C1=O (centres undefined) | -1.09 | 0.0517 µM [falling, full curve, poor fit] | – |
| N#CCCC(CCC#N)C1=NCCc2ccccc21 | -12.6 | 0.103 µM [falling, full curve, poor fit] | 0.0058 µM [falling, full curve, poor fit] |
| CC(C)C(C)NC(=O)CN1C(=O)NC2(CCc3ccccc32)C1=O (centres undefined) | 35.7 | – | – |
| COCc1cc(C)nc(N/N=C/c2ccc(-c3ccc(C(=O)O)c(Cl)c3)o2)c1C#N | -25.9 | 25.9 µM [falling, partial curve] | – |
| CCOc1ccc2nc(NC(=O)CCC(=O)c3cccs3)sc2c1 | 18.3 | – | – |
| COc1ccccc1CNC(=O)C1(NC(=O)Nc2ccc(C)cc2)CCCCC1 | -13 | 0.103 µM [falling, full curve] | – |
| CCc1ccc(CN2CCC(C(=O)Nc3ccc(-n4nc(C)cc4C)cc3)CC2)o1 | – | 18.4 µM [rising, partial curve] | – |
| CCCC(c1nnnn1CS(=O)(=O)c1ccc(C)cc1)N1CCN(CC)CC1 (centres undefined) | 9.55 | – | – |
| O=C1C2C3C=CC(C4CC34)C2C(=O)N1/N=C/c1cccs1 (centres undefined) | 2.09 | 1.46 µM [falling, partial curve] | – |
| N#Cc1c(SCC(=O)Nc2cccc(C(F)(F)F)c2)sc2c(O)cc(=O)[nH]c12 | 1.35 | 29.1 µM [rising, single point] | – |
| CCOC(=O)N1CCN(S(=O)(=O)c2ccc(C(=O)NNc3nc4ccc(Cl)cc4s3)cc2)CC1 | – | 32.6 µM [falling, single point] | – |
| O=C(N/N=C/c1cccnc1)c1ccc(CN2c3cccc4cccc(c34)S2(=O)=O)cc1 | 7.21 | 2.91 µM [rising, partial curve] | 2.31 µM [rising, partial curve] |
| COc1cccc(CNS(=O)(=O)c2cc(CN3C(=O)c4cccnc4C3=O)ccc2OC)c1 | 17.9 | 23.1 µM [falling, single point] | – |
| Cn1c(=O)c2c(-c3ccccc3)n(-n3cnnc3)cc2n(C)c1=O | -24.6 | 29.1 µM [falling, single point] | – |
| O=C1NC(=O)/C(=C\c2ccc(O)cc2O)S1 | -17.4 | 6.51 µM [falling, single point] | – |
| O=S(=O)(c1ccc(SCCO)nc1)N1CCCC1 | -10.8 | 0.116 µM [falling, full curve, poor fit] | – |
| O=C1c2cccc3cccc(c23)C(=O)N1c1nncs1 | 8.02 | 3.26 µM [falling, single point] | – |
| CC1(c2cccc(Br)c2)NC(=O)N(CC(=O)Nc2ccc(S(N)(=O)=O)cc2)C1=O (centres undefined) | 9.01 | 0.651 µM [rising, full curve] | – |
| CC(C)(C)OCC(O)CN1CCN(C(=O)c2ccccc2)CC1 (centres undefined) | -36.9 | – | 32.6 µM [falling, single point] |
